According to the supplement of paper PMC10849652:
The other results are listed elsewhere or left out.

Chains of the proteins cited; added tags and fusions are not shown. Lines headed by an entry give the natural chain unless they say otherwise; changes in a name come on top.
UniProt P41223: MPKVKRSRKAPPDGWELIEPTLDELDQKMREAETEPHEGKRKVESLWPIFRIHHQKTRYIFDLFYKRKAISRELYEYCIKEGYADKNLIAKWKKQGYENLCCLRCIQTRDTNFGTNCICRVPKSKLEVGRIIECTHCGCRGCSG
UniProt Q8WUR7: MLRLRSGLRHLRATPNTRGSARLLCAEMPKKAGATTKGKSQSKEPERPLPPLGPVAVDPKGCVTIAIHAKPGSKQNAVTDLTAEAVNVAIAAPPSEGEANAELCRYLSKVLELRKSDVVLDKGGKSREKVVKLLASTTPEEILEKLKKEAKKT
UniProt Q8WVQ1: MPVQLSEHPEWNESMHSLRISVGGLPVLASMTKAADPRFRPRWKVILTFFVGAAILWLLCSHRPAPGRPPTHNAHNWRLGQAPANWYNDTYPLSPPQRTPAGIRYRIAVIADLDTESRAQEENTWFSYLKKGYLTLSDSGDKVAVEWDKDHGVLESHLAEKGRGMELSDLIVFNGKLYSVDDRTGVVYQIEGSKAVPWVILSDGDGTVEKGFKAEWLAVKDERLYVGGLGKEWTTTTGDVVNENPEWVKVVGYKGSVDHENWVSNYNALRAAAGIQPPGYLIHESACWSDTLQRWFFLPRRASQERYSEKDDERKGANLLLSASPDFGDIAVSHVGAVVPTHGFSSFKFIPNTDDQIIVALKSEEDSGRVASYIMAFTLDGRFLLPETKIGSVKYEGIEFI
UniProt Q13901: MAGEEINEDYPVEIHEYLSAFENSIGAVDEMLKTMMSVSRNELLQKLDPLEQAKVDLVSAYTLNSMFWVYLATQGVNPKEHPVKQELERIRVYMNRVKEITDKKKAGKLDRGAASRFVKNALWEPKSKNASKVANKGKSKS
UniProt Q14444, whole entry, looked up: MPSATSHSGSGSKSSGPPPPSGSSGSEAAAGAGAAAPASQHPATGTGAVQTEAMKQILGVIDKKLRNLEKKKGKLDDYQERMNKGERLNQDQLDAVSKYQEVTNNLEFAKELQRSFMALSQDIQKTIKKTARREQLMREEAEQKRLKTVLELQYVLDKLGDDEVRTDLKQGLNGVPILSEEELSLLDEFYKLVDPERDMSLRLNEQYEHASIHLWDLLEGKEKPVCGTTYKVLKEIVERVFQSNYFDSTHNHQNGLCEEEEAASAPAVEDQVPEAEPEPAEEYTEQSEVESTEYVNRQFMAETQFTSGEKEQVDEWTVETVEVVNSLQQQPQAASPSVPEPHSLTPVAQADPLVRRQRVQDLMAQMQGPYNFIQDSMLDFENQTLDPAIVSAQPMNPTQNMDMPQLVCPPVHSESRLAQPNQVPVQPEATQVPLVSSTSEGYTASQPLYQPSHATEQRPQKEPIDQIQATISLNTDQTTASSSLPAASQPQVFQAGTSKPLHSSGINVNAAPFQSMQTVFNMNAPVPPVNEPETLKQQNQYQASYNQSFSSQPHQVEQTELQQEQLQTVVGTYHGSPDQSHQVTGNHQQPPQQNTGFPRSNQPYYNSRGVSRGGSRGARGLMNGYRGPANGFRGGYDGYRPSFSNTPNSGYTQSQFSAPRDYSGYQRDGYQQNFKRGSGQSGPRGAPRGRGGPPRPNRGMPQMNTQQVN
UniProt Q9H7E9: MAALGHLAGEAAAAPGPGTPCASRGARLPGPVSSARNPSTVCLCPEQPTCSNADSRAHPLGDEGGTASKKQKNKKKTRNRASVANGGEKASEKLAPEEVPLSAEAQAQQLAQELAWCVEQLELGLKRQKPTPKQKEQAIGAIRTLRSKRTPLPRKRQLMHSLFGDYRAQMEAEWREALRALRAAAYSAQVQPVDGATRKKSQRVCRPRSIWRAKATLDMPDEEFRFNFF
UniProt Q9BV19: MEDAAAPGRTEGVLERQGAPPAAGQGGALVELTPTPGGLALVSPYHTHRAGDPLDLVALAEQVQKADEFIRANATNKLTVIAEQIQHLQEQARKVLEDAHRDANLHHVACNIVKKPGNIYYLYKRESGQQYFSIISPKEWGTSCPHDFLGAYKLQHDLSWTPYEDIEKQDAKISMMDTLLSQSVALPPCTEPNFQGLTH
UniProt Q9BPX7: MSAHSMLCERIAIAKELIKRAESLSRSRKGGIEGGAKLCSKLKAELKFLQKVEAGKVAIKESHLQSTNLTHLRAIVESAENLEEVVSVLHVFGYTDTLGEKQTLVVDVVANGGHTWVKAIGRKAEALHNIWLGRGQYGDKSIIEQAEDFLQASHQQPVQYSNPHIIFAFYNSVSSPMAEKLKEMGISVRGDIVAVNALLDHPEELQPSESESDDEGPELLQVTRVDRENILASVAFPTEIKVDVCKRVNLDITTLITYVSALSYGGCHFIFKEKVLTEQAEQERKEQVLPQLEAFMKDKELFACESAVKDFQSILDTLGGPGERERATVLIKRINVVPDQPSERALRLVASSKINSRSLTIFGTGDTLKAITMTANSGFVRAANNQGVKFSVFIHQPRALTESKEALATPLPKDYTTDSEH
UniProt Q9H8G2: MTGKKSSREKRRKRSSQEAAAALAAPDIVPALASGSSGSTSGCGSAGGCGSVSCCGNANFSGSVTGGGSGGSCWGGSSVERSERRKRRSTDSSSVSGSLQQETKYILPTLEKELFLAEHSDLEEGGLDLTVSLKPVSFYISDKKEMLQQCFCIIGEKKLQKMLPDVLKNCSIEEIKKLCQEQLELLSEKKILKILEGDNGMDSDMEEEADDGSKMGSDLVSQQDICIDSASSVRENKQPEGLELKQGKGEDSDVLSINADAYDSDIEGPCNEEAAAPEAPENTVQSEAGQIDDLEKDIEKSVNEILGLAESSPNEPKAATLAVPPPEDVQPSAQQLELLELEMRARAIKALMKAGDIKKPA
UniProt Q8N6N3: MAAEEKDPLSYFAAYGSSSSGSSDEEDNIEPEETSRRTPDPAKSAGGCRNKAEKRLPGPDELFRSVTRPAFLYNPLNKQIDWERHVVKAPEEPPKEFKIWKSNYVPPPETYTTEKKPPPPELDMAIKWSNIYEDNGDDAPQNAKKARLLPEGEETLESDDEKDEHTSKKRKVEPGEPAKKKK
UniProt P27824: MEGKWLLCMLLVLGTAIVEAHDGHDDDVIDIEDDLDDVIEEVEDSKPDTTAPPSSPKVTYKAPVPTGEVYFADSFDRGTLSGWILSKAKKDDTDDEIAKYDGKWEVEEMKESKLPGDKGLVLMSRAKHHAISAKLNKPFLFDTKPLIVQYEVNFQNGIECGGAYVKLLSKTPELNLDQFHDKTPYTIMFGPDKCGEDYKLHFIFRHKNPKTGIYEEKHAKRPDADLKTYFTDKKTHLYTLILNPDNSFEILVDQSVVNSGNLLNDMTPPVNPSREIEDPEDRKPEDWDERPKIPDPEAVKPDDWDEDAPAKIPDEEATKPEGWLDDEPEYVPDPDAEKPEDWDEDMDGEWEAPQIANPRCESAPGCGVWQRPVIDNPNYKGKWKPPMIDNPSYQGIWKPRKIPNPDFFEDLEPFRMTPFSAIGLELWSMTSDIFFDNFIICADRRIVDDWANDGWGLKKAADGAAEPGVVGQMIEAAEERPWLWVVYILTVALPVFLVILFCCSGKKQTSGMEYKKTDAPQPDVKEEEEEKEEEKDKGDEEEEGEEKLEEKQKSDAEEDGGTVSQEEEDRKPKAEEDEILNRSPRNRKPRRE
UniProt Q08AD1: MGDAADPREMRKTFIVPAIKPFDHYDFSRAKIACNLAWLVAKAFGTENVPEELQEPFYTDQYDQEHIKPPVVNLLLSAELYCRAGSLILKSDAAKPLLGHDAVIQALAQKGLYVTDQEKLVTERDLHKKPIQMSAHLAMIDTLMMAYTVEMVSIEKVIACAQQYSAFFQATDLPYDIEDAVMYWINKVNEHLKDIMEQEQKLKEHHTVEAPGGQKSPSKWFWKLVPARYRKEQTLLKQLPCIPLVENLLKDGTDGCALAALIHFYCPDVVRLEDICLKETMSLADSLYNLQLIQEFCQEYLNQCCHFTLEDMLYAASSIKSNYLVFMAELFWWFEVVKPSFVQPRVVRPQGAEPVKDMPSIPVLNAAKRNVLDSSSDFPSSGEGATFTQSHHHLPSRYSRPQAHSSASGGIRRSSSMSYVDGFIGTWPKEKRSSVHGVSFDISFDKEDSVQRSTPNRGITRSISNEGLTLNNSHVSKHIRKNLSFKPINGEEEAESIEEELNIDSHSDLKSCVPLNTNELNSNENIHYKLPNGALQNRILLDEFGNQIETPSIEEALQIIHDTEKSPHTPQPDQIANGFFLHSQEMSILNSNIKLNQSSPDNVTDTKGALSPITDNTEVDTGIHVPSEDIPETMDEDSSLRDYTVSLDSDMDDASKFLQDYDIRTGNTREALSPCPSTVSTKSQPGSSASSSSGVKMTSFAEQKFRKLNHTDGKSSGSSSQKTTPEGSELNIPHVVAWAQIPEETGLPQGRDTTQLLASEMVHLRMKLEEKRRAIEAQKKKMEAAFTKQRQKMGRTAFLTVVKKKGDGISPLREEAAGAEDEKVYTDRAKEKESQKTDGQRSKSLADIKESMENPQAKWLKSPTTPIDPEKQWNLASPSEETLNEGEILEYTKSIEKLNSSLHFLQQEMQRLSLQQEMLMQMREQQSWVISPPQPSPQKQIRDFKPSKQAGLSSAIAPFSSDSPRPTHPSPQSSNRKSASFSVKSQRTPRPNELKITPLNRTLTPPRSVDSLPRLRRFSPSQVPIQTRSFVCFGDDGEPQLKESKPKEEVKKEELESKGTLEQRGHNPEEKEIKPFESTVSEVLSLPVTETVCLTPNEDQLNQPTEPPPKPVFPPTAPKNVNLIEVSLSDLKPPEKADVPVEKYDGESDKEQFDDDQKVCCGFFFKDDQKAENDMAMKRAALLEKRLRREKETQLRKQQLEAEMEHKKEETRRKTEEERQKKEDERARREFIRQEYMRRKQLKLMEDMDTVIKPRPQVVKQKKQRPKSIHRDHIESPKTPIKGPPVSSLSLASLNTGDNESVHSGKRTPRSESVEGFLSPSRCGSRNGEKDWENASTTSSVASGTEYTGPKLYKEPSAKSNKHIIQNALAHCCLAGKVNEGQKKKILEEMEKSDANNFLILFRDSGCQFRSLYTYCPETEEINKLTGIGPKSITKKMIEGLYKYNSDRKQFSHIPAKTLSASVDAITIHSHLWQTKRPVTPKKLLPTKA
UniProt O43683: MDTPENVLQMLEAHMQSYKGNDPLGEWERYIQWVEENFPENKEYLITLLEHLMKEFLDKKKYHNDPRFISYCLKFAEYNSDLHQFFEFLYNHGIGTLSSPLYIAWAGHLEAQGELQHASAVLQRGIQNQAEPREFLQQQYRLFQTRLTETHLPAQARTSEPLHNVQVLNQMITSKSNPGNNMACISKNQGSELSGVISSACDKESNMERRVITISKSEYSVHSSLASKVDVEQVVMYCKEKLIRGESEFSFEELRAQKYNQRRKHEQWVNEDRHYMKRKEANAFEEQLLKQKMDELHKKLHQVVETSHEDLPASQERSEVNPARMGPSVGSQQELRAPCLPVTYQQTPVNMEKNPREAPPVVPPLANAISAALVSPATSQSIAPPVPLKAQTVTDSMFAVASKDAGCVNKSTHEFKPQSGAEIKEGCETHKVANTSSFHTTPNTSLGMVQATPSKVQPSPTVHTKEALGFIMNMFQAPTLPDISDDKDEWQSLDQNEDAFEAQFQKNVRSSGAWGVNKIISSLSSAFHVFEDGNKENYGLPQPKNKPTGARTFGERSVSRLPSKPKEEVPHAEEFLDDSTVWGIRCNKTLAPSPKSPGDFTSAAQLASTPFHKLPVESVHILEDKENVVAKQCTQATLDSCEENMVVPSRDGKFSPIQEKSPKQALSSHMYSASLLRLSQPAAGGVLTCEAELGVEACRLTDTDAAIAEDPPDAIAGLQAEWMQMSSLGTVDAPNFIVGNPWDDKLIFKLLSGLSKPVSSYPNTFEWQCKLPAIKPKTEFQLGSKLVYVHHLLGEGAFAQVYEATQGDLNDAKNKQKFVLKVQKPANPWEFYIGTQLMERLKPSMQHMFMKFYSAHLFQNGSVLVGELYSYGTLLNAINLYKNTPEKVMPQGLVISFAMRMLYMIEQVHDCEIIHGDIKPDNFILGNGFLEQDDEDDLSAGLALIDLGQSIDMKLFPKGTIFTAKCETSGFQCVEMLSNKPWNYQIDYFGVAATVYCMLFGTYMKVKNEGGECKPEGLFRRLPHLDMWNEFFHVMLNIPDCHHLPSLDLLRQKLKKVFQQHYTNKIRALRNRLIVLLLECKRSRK
UniProt Q96B23: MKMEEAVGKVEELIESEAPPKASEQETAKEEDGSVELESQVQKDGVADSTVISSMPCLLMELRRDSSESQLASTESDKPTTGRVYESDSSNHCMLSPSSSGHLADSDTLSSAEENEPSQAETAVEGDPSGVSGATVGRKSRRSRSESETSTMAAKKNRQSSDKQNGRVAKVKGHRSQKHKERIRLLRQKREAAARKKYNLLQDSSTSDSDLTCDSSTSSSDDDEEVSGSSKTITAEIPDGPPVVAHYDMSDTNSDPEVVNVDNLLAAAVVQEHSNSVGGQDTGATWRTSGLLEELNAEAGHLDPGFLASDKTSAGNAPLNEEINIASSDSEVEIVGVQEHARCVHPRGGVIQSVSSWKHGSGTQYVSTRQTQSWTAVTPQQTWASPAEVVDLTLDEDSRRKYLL

Tests used:
Assay in all cases: log2 fold change, soluble protein after heating vs DMSO (PISA); higher = thermal stabilisation; K562 lysate, 10 uM; active = over 0.2 and 3.5 SD of the protein, either way, in both replicates (recomputed)
[1] = compound: NCC(=O)Nc1ccc(-n2nc(C(F)(F)F)cc2-c2ccc3c(ccc4ccccc43)c2)cc1
Method in brief: (§1)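 A 30 min treatment with 10 μM compound was applied to crude K562 extract at 1 mg/mL protein in PBS pH 7.4 with 1 mM MgCl2. Heating for 3 min spanned 48°C-58°C, after which aliquots were pooled, adjusted to 0.5% NP-40 at 4°C and spun at 21,000xg for 90 min. TMTpro 16plex LC-MS/MS of the supernatant, with channel sums equalised, gave values recorded as log-two fold change in thermal stability against solvent controls, from duplicates.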

vorinostat = compound: O=C(CCCCCCC(=O)Nc1ccccc1)NO [vorinostat]
Method in brief: as §1

silmitasertib = compound: O=C(O)c1ccc2c(c1)nc(Nc1cccc(Cl)c1)c1ccncc12 [silmitasertib]
Method in brief: as §1

[2] = compound: O=C1NC(=O)C(c2cnc3ccccn23)=C1c1cn2c3c(cc(F)cc13)CN(C(=O)N1CCCCC1)CC2
Method in brief: as §1

entospletinib = compound: c1cn2cc(-c3ccc4cn[nH]c4c3)nc(Nc3ccc(N4CCOCC4)cc3)c2n1 [entospletinib]
Method in brief: as §1

Target	log2 fold change [1]	log2 fold change (vorinostat)	log2 fold change (silmitasertib)	log2 fold change [2]	log2 fold change (entospletinib)
CALB1 (UniProt P05937)	inactive: 0.011	inactive: 0.072	inactive: -0.019	inactive: -0.005	inactive: -0.024
BUD31 (UniProt P41223)	inactive: -0.009	inactive: 0.171	inactive: -0.026	inactive: -0.018	inactive: 0.021
C15orf40 (UniProt Q8WUR7)	inactive: 0.024	inactive: 0.101	inactive: -0.046	inactive: 0.007	inactive: -0.02
C11orf98 (UniProt E9PRG8)	inactive: 0.015	inactive: 0.167	inactive: -0.024	inactive: 0.033	inactive: -0.034
CANT1 (UniProt Q8WVQ1)	inactive: -0.046	inactive: 0.116	inactive: -0.031	inactive: -0.062	inactive: 0.011
C1D (UniProt Q13901)	inactive: 0.046	inactive: 0.051	inactive: -0.009	inactive: 0.074	inactive: -0.079
CAPRIN1 (UniProt Q14444)	inactive: 0.03	inactive: 0.153	inactive: -0.014	inactive: -0.016	inactive: 0.015
C8orf33 isoform 2 (UniProt Q9H7E9)	inactive: -0.014	inactive: -0.031	inactive: -0.067	inactive: 0.003	inactive: 0.026
CACTIN isoform 2 (UniProt Q8WUQ7)	inactive: 0.034	inactive: -0.141	inactive: -0.049	inactive: 0.018	inactive: -0.019
C1orf50 (UniProt Q9BV19)	inactive: -0.009	inactive: 0.097	inactive: -0.115	inactive: 0.032	inactive: 0.026
C7orf25 isoform 2 (UniProt Q9BPX7)	inactive: -0.004	inactive: -0.151	inactive: 0.12	inactive: -0.068	inactive: -0.05
CAAP1 (UniProt Q9H8G2)	inactive: -0.023	inactive: -0.033	inactive: -0.047	inactive: 0.011	inactive: -0.003
C1orf52 (UniProt Q8N6N3)	inactive: 0.035	inactive: 0.093	inactive: -0.117	inactive: -0.002	inactive: 0.035
C9orf78 (UniProt Q9NZ63)	inactive: -0.011	inactive: 0.109	inactive: -0.041	inactive: -0.046	inactive: 0.007
CANX isoform 2 (UniProt P27824)	inactive: 0.018	inactive: 0.131	inactive: -0.004	inactive: -0.015	inactive: -0.004
C20orf27 isoform 2 (UniProt Q9GZN8)	inactive: -0.009	inactive: -0.007	inactive: -0.043	inactive: 0.017	inactive: 0.044
CA2 (UniProt P00918)	inactive: 0.116	inactive: 0.127	inactive: -0.034	inactive: -0.024	inactive: 0.098
C3orf38 (UniProt Q5JPI3)	inactive: -0.021	inactive: 0.004	inactive: -0.038	inactive: 0.014	inactive: 0.037
C16orf70 (UniProt Q9BSU1)	inactive: -0.013	active: -0.382	inactive: 0.019	inactive: -0.015	inactive: -0.104
C1orf112 (UniProt Q9NSG2)	inactive: -0.075	inactive: -0.095	inactive: -0.084	inactive: 0.003	inactive: -0.037
C19orf53 (UniProt Q9UNZ5)	inactive: -0.146	inactive: 0.073	inactive: 0.098	inactive: -0.002	inactive: -0.005
CAMSAP2 (UniProt Q08AD1)	inactive: 0.055	inactive: -0.172	inactive: 0.064	inactive: 0.035	inactive: 0.052
BUB1 (UniProt O43683)	inactive: 0.096	inactive: -0.189	inactive: 0.021	inactive: -0.022	inactive: -0.009
CALM2 (UniProt P0DP24)	inactive: 0.008	inactive: -0.027	inactive: 0.064	inactive: -0.121	inactive: -0.048
CAMKK2 (UniProt Q96RR4)	inactive: 0.081	active: -0.325	inactive: 0.074	inactive: -0.02	inactive: 0.039
C18orf25 (UniProt Q96B23)	inactive: 0.03	inactive: 0.089	inactive: -0.147	inactive: -0.034	inactive: 0.036

Single values from the entries so far.
CACTIN isoform 2 (UniProt Q8WUQ7) – log2 fold change [1]: inactive: 0.034
BUD31 (UniProt P41223) – log2 fold change [2]: inactive: -0.018
